No constants are given. Whether binding was seen depends on the method and setting. Some entries that bind do so weakly or less than the wild type.

Protein sequences, listed by entry. Tags and fused reporters are not part of them.
UniProt Q99500: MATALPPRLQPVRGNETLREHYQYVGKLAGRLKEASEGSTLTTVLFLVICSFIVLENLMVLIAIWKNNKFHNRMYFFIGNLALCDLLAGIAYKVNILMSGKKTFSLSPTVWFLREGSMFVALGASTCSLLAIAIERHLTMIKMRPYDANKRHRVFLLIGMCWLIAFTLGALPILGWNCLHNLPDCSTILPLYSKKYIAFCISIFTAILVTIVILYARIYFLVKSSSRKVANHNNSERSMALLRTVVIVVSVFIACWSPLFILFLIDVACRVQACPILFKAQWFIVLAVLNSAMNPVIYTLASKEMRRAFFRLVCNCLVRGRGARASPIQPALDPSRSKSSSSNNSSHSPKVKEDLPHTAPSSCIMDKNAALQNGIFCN

Assay [1] has as its target Full-length S1P3 protein fused to either a V5 epitope or enhanced green fluorescent protein (EGFP) on its C-terminal end, expressed on HEK293 cells (UniProt Q99500). In words: immunocytochemistry on S1P3-transfected HEK293 cells.
Assay [2] shares this target. In words: immunocytochemistry of hybridoma supernatants on S1P3-transfected HEK293 cells.

B1: Monoclonal antibody Mab7H9 produced by hybridoma EDDbeta7H9 (ATCC PTA-9973) (antibody, V domains shown)
VH: QVTLKESGPGILQPSQTLSLTCSFSGFSLSTSNMGVGWIRQPSGKGLEWLLHILWNDNKHYNPALKSRLTISKDTYKNQVFLKIANVDTADTATYYCARILYRSNYYVMDYWGQGTSVTVSS
VL: DIVMTQSHKFMSTSVGDRVSITCKASQDVSTGVVWYQQKEGQSPKLLIYSASYRYTGVPNRFTGSGSGTDFTFTISGVQAEDLAVYYCQQHYSSPTFGGGTKLEIKR
Take B1: the binding entry in assay [1] and in assay [2] was “binds” each time.
